# Reference: PubChem BioAssay AID1794845 (National Center for Advancing Translational Sciences (NCATS), 2023)
# The chains behind the UniProt entries cited, without tags or fusion partners. Where a name states a change or a piece, a line headed by the entry shows the natural chain unless it says otherwise.
# UniProt C7C422: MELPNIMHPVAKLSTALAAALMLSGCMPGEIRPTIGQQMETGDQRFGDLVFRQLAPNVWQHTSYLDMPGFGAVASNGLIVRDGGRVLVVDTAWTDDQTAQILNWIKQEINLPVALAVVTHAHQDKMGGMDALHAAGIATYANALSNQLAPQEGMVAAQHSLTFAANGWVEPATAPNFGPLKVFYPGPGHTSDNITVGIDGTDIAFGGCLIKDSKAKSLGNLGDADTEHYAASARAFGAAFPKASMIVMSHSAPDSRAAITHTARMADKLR
# Among all 6,900 compounds or so, fewer than 10 were called active. Calls follow the shape of the dose curve; as a rule, active = well fitted curve in the direction sought with a large enough effect; inconclusive = small, poorly fitted or top-dose-only effect, or another doubt; inactive = no such curve, though single readings can be large or run the other way. This is one part of the list.
# Biological target: Metallo-beta-lactamase type 2 (Klebsiella pneumoniae) (UniProt C7C422)
# Experiment: qHTS to identify inhibitors of the New Delhi Metallo-beta-lactamase (NDM): primary screen against the NCATS Gemini Collection; also: % of control where 0% means no effect
# Details: NDM-1 enzyme, meropenem hydrolysis, absorbance 300 nm; at 38.4 µM (top of the series) unless noted
# From the text: Assay Submitter (PI): James Inglese Ph.D., Patricia Dranchak Ph.D., Mahesh Aitha Ph.D. Assay Development and Screening Technology Laboratory (ADST) National Center for Advancing Translational Sciences (NCATS), Rockville, MD National Institute of Health (NIH), Bethesda, Maryland The metallo-beta-lactamases (MBL) are a main antibiotic resistance mechanism evolved by bacteria. There is an urgent clinical need for MBL inhibitors to mitigate this growing threat. To support a machine-based learning study, qHTS has been used to experimentally test inhibitors identified by prediction tools.
# PROTOCOL TABLE (as described by Inglese et al., 2007) SEQUENCE No. (e.g., 1, 2, 3, etc.); […] (e.g., enzyme, Incubation, Reagent, etc.); VALUE; DESCRIPTION 1; NDM-1; 4 uL of 3 nM enzyme [2 nM final] in 50 mM HEPES (pH 7.0), 1 uM […], 0.01% Tween20; Use BioRaptr to dispense into Aurora black, clear bottom low base 1536-well plates 2; Compounds; 23 nL; Use Pin Tool (Wako) to transfer DMSO control and library compounds in DMSO 3; Incubate; >30 min 4; Reagent; 2 uL of 150 uM meropenem [50 uM final] 5; Incubate; 30 min. 6; Detector; Absorbance at 300 nm (bandwidth = 5 nm, 25 flashes/well) on Tecan Infinity NOTES (numbers refer to sequence above) 1; Column 1 of each plate received assay buffer without enzyme and columns 2-48 received enzyme for a final assay concentration of 2 nM. 2; Control plate contained DMSO in columns 1, 2, 3, and 4. 3; Compound interaction with enzyme. 4; Meropenem substrate was prepared in the same assay buffer as step 1 for a final assay concentration of 50 uM and added to all wells across the assay plates. 5; Substrate interaction with enzyme, plateau phase of kinetics. 6; Default reader settings were applied for absorbance read at 300 nm, bandwidth = 5 nm, 25 flashes/well. References: Inglese J, Shamu CE, Guy RK. 2007. Reporting data from high-throughput screening of small-molecule libraries. Nat Chem Biol. doi:10.1038/nchembio0807-438 Yasgar A, Shinn P, Jadhav A, Auld D, Michael S, Zheng W, Austin CP, Inglese J, Simeonov A. 2008. Compound Management for Quantitative High-Throughput Screening. J Lab Autom 13:79 - 89. doi:10.1016/j.jala.2007.12.004
row,Structure (SMILES),activity % (negative = inhibition)
1,COCCOC1CCN(C(=O)c2[nH]nc3c2COc2ccccc2-3)CC1,inactive: 85%
2,COc1cccc(C(=O)N2CC(=O)N(Cc3ccc(Cl)cc3)CC(O)C2)c1 (centres undefined),inactive: -3.82%
3,CC1Oc2ccc(NC(=O)c3cccs3)cc2CN(CCOc2ccccc2)C1=O (centres undefined),inactive: 7.73%
4,CN(C)c1nc(-c2ccncc2)nc2c1CCN(C(=O)c1cc(=O)[nH][nH]1)C2,inactive: 17.4%
5,CCCNC(=O)N1CCC2(CC1)N(c1ccccc1)C(=O)CS2=O (centres undefined),inactive: 45.8%
6,O=C(NCC1CCCN(C(=O)N2CCCC2)C1)c1ccc(-c2ccccc2)cc1 (centres undefined),inactive: 3.02%
7,Cc1nc2ncccn2c1C(=O)N[C@H]1CCOC[C@H]1C1CCOCC1,inactive: 1.69%
8,Cc1ccc(C(=O)N2CCC(N3C(=O)c4c(c(C)nn4-c4ccccc4)C3C)CC2)cc1 (centres undefined),inactive: 5.5%
9,O=C(Nc1ccc(F)cc1)c1ccc2ccnn2c1,inactive: 20.8% [at 57.5 µM]
10,C1CC2(CCN1)CC(OCC1CC1)CCO2 (centres undefined),inactive: -6.21%
11,Cc1ccc(C2=NC3(CCN(C(=O)c4ccc(C)c(C)c4)CC3)ON2)cc1,inactive: 25.1%
12,Cc1ccc(-c2cc(-c3ccncc3)c3cncn3c2)cn1,inactive: 61.6% [at 77.1 µM]
13,O=C(C1CC=CC1)N1C[C@@H](COc2cccnc2)[C@H](c2ccccn2)C1,inactive: 0.815%
14,CNC(=O)N1CCC(C2CCN(C(=O)NCc3cccc(OC)c3)C2)CC1 (centres undefined),inactive: -1.39%
15,O=C(NCC1CCCO1)C1CCN(C2CCN(C(=O)CCC3CCCCC3)CC2)CC1 (centres undefined),inactive: 0.446%
16,CC(C)[S+](=O)([O-])N1CC2ON=C(C(=O)O)C2C1 (centres undefined),inactive: -1.12% [at 57.5 µM]
17,CCN(CC)S(=O)(=O)c1ccc(-c2nc(C)ccc2OC)cc1,inactive: 4.23%
18,COCc1cn(C[C@H]2C[C@@H](NC(=O)c3ccc(C#N)cc3)[C@H](O)[C@@H]2O)nn1,inactive: 10.9% [at 57.5 µM]
19,O=C1CCN(Cc2cccc(F)c2)CCCOCCN1,inactive: 2.17%
20,O=C(C[C@@H]1CCNC[C@@H]1Cc1cc(COc2ccccc2)on1)Nc1ccccc1,inactive: -9.48% [at 57.5 µM]
21,Cc1ccc(CC(=O)N2CCN(c3cc(C(F)(F)F)ncn3)CC2)cc1,inactive: 4.12%

row,Structure (SMILES),activity % (negative = inhibition)
1,COCCCNC(=O)C1CCCN1Cc1cccc(-c2ccc(C)c(Cl)c2)c1 (centres undefined),inactive: 7.62%
2,O=C([C@@H]1C[C@H](F)CN1C(=O)Cc1ccccc1F)N1CCCCC1,inactive: 4.88%
3,COc1cc(CN2CCN(Cc3ccc(-n4cccn4)cc3C)CC2CCO)cc(OC)c1 (centres undefined),inactive: 0.369%
4,O=C(c1ccccc1OCC1CCCN(Cc2nccs2)C1)N1CCCC1 (centres undefined),inactive: -1.5%
5,CCc1nc2c(c(-c3ccc(O)cc3)n1)CCN(Cc1ccc(F)cc1)CC2,inactive: 2.26%
6,COCCN1C(=O)CCC2(C(=O)N3CCN(c4ccccn4)CC3)CCCC=C12 (centres undefined),inactive: 0.137%
7,O=C(O)C[C@@H]1CCN(C(=O)c2ccc(C(F)(F)F)cc2)C[C@@H]1CCN1CCN(c2ccccn2)CC1,inactive: -0.741%
8,CCOc1ccc(-c2cccc3c2CCNC3)cc1C(N)=O,inactive: 1.79%
9,CC[S+](=O)([O-])N1C[C@@H](CO)[C@@H]2Oc3c(F)cccc3[C@@H]21,inactive: 7.08%
10,CC1CCN(C(=O)C[C@@H]2c3nc(NC(=O)CC(C)(C)C)sc3C[C@@H]3[C@](C)(CO)[C@H](O)CC[C@]32C)CC1,inactive: 5.2%
11,COc1ccc(-c2nc3ccncc3[nH]2)cc1,inactive: 48% [at 77.1 µM]
12,Cc1nc(C2(C)CCN(C(=O)CCCC(=O)n3nc(C)c4ccccc43)CC2)no1,inactive: 17.2%
13,COCCNC(=O)c1cc(-c2ccccc2OC)c2cccn2n1,inactive: -0.624% [at 57.5 µM]
14,CN(Cc1ccccc1C(F)(F)F)S(=O)(=O)c1cccc(C(F)(F)F)c1,inactive: 2.58%
15,O=C([C@@H]1C[C@H](F)CN1C(=O)NCc1ccc(OC(F)(F)F)cc1)N1CCCCC1,inactive: -6.66%
16,CCN(CC)C(=O)C[C@@H]1c2nc(NC(=O)N3CCOCC3)sc2C[C@@H]2[C@](C)(CO)[C@H](O)CC[C@]21C,inactive: 7.1%
17,COCC(=O)N1CCN(C(=O)CSCC(=O)O)C[C@H]1C(=O)N[C@H]1CCCNC1=O,inactive: 14% [at 57.5 µM]
18,COC1CCOC2(CCN(S(=O)(=O)c3c(C)noc3C)CC2)C1 (centres undefined),inactive: -6.37%
19,Cc1cccc(-c2nc(Cn3c(-c4ccc(F)cc4)nc(C)c(CCO)c3=O)c(C)o2)c1,inactive: -3.03%
20,Cn1nccc1C(=O)N1CCC(Cc2nc(C3CC3)n[nH]2)C1 (centres undefined),inactive: 15.5%
21,Cc1ccc(C(=O)N2CC(Oc3ccc(F)c(C)c3)C2)cc1,inactive: -2.66% [at 57.5 µM]

row,Structure (SMILES),activity % (negative = inhibition)
1,O=C(NC1C[C@H]2CC[C@@H](C1)N2S(=O)(=O)c1cccs1)c1ccncc1 (some centres undefined),inactive: 0.389%
2,CC(C)NC(=O)CCc1cc2n(n1)CCN(C(=O)[C@H]1CCCO1)C2,inactive: 3.26%
3,C=CCNC(=O)c1cn2c(n1)CN(C(C)=O)CC2,inactive: 8.68% [at 77.1 µM]
4,Cc1cc(N2CCC3(CCCN(C)C3=O)C2)c2ccccc2n1 (centres undefined),inactive: 4.05%
5,O=C1CN(Cc2ccc(-c3ccccc3)cc2)CCN1c1ccc(Cl)nn1,inactive: 6.11%
6,O=C(NCc1nnc2n1CCCC2)[C@H]1CNC[C@H](C(=O)N2CCOCC2)C1,inactive: -5.13%
7,Cc1cccc(NC(=O)N2CCn3nnc(CCC(=O)NC4CC4)c3C2)c1,inactive: -3.18%
8,COc1ccccc1-c1nc2nccc(-c3cccnc3)n2n1,inactive: 31.2%
9,CN(C)CC1(O)CCC2(CCN(C(=O)c3nccc4ccccc34)CC2)CC1,inactive: -4.02%
10,NCc1ccc(Oc2ncnc3ccccc23)cc1,inactive: 55.8% [at 57.5 µM]
11,CC(=O)NCC(=O)NC1CC(C)(C)Cc2nc(N(C)Cc3ccccc3)ncc21 (centres undefined),inactive: -0.335%
12,O=C1COC[C@H]([C@H](O)c2ccc(NC(=O)C3CCCC3)cc2)N1,inactive: -0.711% [at 57.5 µM]
13,CC1(c2noc(C3CC3)n2)CCN(C(=O)CCc2nc3ccc(Cl)cc3[nH]2)CC1,inactive: 3.59%
14,CCn1nc(CC(C)C)cc1C(=O)N1CCN(S(=O)(=O)CC)CC1,inactive: 8.03%
15,CCOc1ccc(C(=O)N2CCCC3(C2)NC(=O)N(Cc2cc(C)ccc2C)C3=O)cc1 (centres undefined),inactive: 0.0119%
16,CC(C)CNC(=O)N1CCC(Nc2cccnc2)C1 (centres undefined),inactive: 13.3%
17,COc1ccccc1C(=O)N1CC(Oc2ccc(-c3noc(-c4ccncc4)n3)cc2)C1,inactive: -0.932%
18,Cc1ccc(C(C(=O)NCc2ccc(O)cc2)N(C)C)cc1 (centres undefined),inactive: 0.0099%
19,COc1ccc2[nH]c(C(=O)N3CCCCCNC(=O)[C@@H]4CCC[C@@H]43)cc2c1,inactive: 35.9%
20,Cc1c(CNC(=O)c2ccccc2C2CCNC2)oc2ccccc12 (centres undefined),inactive: 5.89%
21,CNC(=O)Cn1nc(C2CCN(C(=O)c3ccccc3F)CC2)c2c1CCOC2,inactive: 24.9%

row,Structure (SMILES),activity % (negative = inhibition)
1,Cc1ccc(CN2CCOCCNC(=O)[C@H]3CCCC[C@H]32)o1,inactive: 0.112%
2,CN(CC(=O)N[C@H]1CCOC[C@H]1C1CCOCC1)Cc1ccncc1,inactive: 7.29%
3,Fc1ccc(Nc2nc(-c3ccccc3F)no2)cc1,inactive: 2.76%
4,COc1ccc(-c2cc(N3CCCN(C(=O)CCCc4ccccc4)CC3)n[nH]2)cc1,inactive: 3.03%
5,CC(C)CN1C(=O)COC[C@@H]1[C@H](O)c1ccc(NC(=O)c2ccc3c(c2)OCO3)cc1,inactive: 53.8% [at 57.5 µM]
6,O=C1CC(c2ccccc2)N(C(=O)CNC(=O)c2ccncc2)CCCCCN1 (centres undefined),inactive: -3.75%
7,COc1cccc(-c2ccc(NC(=O)C3CCCN3C(=O)CNC(C)=O)cc2)c1 (centres undefined),inactive: 0.221%
8,CN(Cc1cccc(C(F)(F)F)c1)C(=O)CC1CCCC1,inactive: -5.9% [at 57.5 µM]
9,O[C@]12CCNC[C@H]1CN(Cc1cccc(N3CCOCC3)c1)CC2,inactive: 29.4%
10,O=C(NC[C@H]1O[C@@H](CC(=O)N2CCc3ccccc32)[C@H](O)[C@@H]1O)C1CC1,inactive: -1.9% [at 57.5 µM]
11,O[C@@H]1CN(CC2CC2)CC[C@H]1N1CCN(c2ccccc2F)CC1,inactive: 3.65%
12,CC(C)Cc1nc(NC(=O)C[C@H]2NC(=O)c3ccccc3NC2=O)n[nH]1,inactive: -0.13%
13,O=C(N[C@H]1C[C@@H]2OCC[C@H]12)c1cccc(-n2cnnc2)n1,inactive: -0.0441%
14,Cc1ccc(CNC2CN(C(=O)OC(C)(C)C)C2)nc1,inactive: -1.02% [at 57.5 µM]
15,Cn1ccnc1C(=O)N1CCCCCNC(=O)[C@H]2C[C@H](C(=O)N3CCc4ccccc4C3)C[C@H]21,inactive: 2.11%
16,O=C(c1c2c(nc3ccccc13)CCCC2)N1CCCC(c2nc(C3CCOCC3)no2)C1 (centres undefined),inactive: 8.67%
17,O=C(NCCCc1ccccc1)C1CCN(c2cc(C(F)(F)F)ncn2)CC1,inactive: 18.3%
18,COc1ccc(CNC(=O)O[C@H]2COCCN(c3nc4ccccc4o3)C2)cc1,inactive: 1.02% [at 57.5 µM]
19,O=C(c1ccc(F)cc1)N1CCN(c2nc3ncccc3o2)CC1,inactive: 9.92% [at 57.5 µM]
20,OCC1(O)CCCN(Cc2cnc(NCc3ccccc3)nc2)C1 (centres undefined),inactive: -0.644%
21,COCc1nc(C2CC(N)C2)cc(N(C)Cc2noc3c2CCCC3)n1 (centres undefined),inactive: 15.4%

# Looked up above:
# activity % (negative = inhibition) with CCCNC(=O)N1CCC2(CC1)N(c1ccccc1)C(=O)CS2=O (centres undefined) reads inactive: 45.8%
# activity % (negative = inhibition) with COCCNC(=O)c1cc(-c2ccccc2OC)c2cccn2n1 reads inactive: -0.624% [at 57.5 µM]
# activity % (negative = inhibition) with CC1Oc2ccc(NC(=O)c3cccs3)cc2CN(CCOc2ccccc2)C1=O (centres undefined) reads inactive: 7.73%
